Data taken from doi:10.1101/2023.06.23.545108.
These are yes or no findings as the source states them, for the method shown. Binding seen in cells or lysates may run through a third protein. These calls come from enrichment with a bait or labelling near it, and not all partners need be listed. Where a sequence is shown, tags or fusion partners need not be part of it.

T1: hnRNPM-GFP (heterogeneous nuclear ribonucleoprotein M, C-terminally GFP-tagged) (UniProt P52272)
T1 sequence: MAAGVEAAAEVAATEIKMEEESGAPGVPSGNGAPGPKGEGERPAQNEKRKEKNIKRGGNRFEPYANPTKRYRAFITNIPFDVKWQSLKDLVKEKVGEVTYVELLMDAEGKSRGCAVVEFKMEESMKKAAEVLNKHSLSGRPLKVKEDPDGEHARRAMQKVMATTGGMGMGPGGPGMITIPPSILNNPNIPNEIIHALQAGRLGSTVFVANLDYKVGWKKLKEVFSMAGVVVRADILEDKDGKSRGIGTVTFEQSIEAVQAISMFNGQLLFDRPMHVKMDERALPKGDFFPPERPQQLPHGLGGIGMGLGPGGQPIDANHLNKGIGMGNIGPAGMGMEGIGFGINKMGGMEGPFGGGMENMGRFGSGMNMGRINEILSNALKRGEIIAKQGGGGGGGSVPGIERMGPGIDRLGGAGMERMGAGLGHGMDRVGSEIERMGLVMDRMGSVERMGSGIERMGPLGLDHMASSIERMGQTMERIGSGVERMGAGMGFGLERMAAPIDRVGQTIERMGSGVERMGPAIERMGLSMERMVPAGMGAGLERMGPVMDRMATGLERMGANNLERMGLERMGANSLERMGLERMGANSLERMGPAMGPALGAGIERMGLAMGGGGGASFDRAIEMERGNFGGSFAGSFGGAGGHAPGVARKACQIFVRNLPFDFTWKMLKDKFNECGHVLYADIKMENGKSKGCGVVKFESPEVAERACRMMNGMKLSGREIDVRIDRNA

B1: IKKβ (printed as IKKý; IKBKB), endogenous in THP-1 (protein, UniProt O14920 1-756)
chain: MSWSPSLTTQTCGAWEMKERLGTGGFGNVIRWHNQETGEQIAIKQCRQELSPRNRERWCLEIQIMRRLTHPNVVAARDVPEGMQNLAPNDLPLLAMEYCQGGDLRKYLNQFENCCGLREGAILTLLSDIASALRYLHENRIIHRDLKPENIVLQQGEQRLIHKIIDLGYAKELDQGSLCTSFVGTLQYLAPELLEQQKYTVTVDYWSFGTLAFECITGFRPFLPNWQPVQWHSKVRQKSEVDIVVSEDLNGTVKFSSSLPYPNNLNSVLAERLEKWLQLMLMWHPRQRGTDPTYGPNGCFKALDDILNLKLVHILNMVTGTIHTYPVTEDESLQSLKARIQQDTGIPEEDQELLQEAGLALIPDKPATQCISDGKLNEGHTLDMDLVFLFDNSKITYETQISPRPQPESVSCILQEPKRNLAFFQLRKVWGQVWHSIQTLKEDCNRLQQGQRAAMMNLLRNNSCLSKMKNSMASMSQQLKAKLDFFKTSIQIDLEKYSEQTEFGITSDKLLLAWREMEQAVELCGRENEVKLLVERMMALQTDIVDLQRSPMGRKQGGTLDDLEEQARELYRRLREKPRDQRTEGDSQEMVRLLLQAIQSFEKKVRVIYTQLSKTVVCKQKALELLPKVEEVVSLMNEDEKTVVRLQEKRQKELWNLLKIACSKVRGPVSGSPDSMNASRLSQPGQLMSQPSTASNSLPEPAKKSEELVAEAHNLCTLLENAIQDTVREQDQSFTALDWSWLQTEEEEHSCLEQAS

Each molecule was assayed against T1, hnRNPM-GFP (heterogeneous nuclear ribonucleoprotein M, C-terminally GFP-tagged) (assay: affinity purification with mass spectrometry).

How did the binding turn out when “DNA-dependent protein kinase catalytic subunit (PRKDC), endogenous in THP-1 (from UniProt P78527 1-4128)” was run?
The binding was “binds”.

How did the binding turn out when “pre-mRNA-splicing factor ATP-dependent RNA helicase DHX15 (DHX15), endogenous in THP-1 (from UniProt O43143 1-795)” was run?
Its binding is “binds”.

“ELAV-like protein 1 (ELAVL1), endogenous in THP-1 (from UniProt Q15717 1-326)” was tested. Which binding did it give?
The binding was “binds”.

“DDX3X, endogenous in THP-1 (from UniProt O00571 1-662)” was tested. Which binding did it give?
Its binding is “binds”.

“zinc finger CCCH-type antiviral protein 1 (ZC3HAV1), endogenous in THP-1 (from UniProt Q7Z2W4 1-902)” was tested. Which binding did it give?
The binding was “binds”.

B1 was tested. Which binding did it give?
Its binding is “binds”.
